According to article PMC11442487:
These are yes or no findings as the source states them, for the method shown. In cells and extracts the contact can be indirect. These calls come from enrichment with a bait or labelling near it, and not all partners need be listed.

Amino acid sequences for entries named in this document (tags omitted). Residues count along the entry.
UniProt P07750, residues 21-140: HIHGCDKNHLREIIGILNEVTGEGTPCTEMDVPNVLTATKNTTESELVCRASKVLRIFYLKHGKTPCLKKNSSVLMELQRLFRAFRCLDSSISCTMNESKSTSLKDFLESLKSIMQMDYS

Target: T1, Trem2 (triggering receptor expressed on myeloid cells 2), overexpressed in macrophage cells (UniProt Q99NH8)
T1 sequence: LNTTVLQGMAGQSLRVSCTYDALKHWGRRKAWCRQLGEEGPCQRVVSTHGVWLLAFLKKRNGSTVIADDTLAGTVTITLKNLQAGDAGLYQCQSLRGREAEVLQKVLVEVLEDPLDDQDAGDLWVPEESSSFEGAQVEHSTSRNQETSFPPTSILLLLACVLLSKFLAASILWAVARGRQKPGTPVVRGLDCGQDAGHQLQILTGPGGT
Experiment: affinity purification with mass spectrometry; immunoprecipitation (Millipore 17-500) from 1x10^7 macrophage cells stably overexpressing Trem2, high glucose 25 mM, LPS 100 ng/mL 6 h; gel bands digested with trypsin, LC-MS/MS

interleukin (IL)-4, in macrophage cells (from UniProt P07750 21-140) (ligand)
binding: binds
